Part of at least one peptide drawing is inferred or uncertain, most often the ends. Numbered stars: 1 amine (or outer) side, 2 acyl side, 3 side chain; on linkers, the order of the positions; unused ones are H or OH. Bridge positions count the residues as written; N and C are the ends. Square brackets hold non-standard residues; d marks the D form. Peptide text beside a SMILES is read from it. * marks the point of attachment. ξ: configuration not given here. pTerphenylCO(4''-OnC5H11) = CCCCCOc1ccc(-c2ccc(-c3ccc(C(=O)*)cc3)cc2)cc1; X1 = CC(C)OP(=O)(O)Oc1ccc(CC(O)C(N[*:1])C(=O)[*:2])cc1; X3 = COP(=O)(O)Oc1ccc(C(O)C(O)C(N[*:1])C(=O)[*:2])cc1; X4 = CCCCOP(=O)(O)Oc1ccc(CC(O)C(N[*:1])C(=O)[*:2])cc1; ξOrn(4,5-diOH) = O=C(C(CC(O)C(O)N[*:3])N[*:1])[*:2]; ξOrn(4ξ-OH) = O=C(C(CC(O)CN[*:3])N[*:1])[*:2]; ξPro(3ξ-OH,4ξ-Me) = CC1CNC(C(=O)O)C1O; Hyp = O=C(O)[CH]1C[CH](O)CN1
Key:
C. albicans [1] = experiment: Effective dose for controlling a systemic fungal infection in vivo (mice); settings: mouse
C. albicans [2] = experiment: Minimal inhibitory concentration (MIC) in vitro, standard agar dilution or disc-diffusion test; assay type: cell-based; settings: Minimal inhibitory concentration against C. albicans

Row | SMILES | ED50 (C. albicans [1]) [mg/kg] | MIC (C. albicans [2]) [µg/mL]
1 | CCCCCOc1ccc(-c2ccc(-c3ccc(C(=O)NC4CC(O)CNC(=O)C5C(O)C(C)CN5C(=O)C(C(C)O)NC(=O)C(C(O)Cc5ccc(OP(=O)(O)OC(C)C)cc5)NC(=O)C5CC(O)CN5C(=O)C(C(C)O)NC4=O)cc3)cc2)cc1 (centres unmarked) [Example 8B] ({pTerphenylCO(4''-OnC5H11)}-[ξOrn(4ξ-OH)]T[Hyp][X1]T[ξPro(3ξ-OH,4ξ-Me)]; lactam 1-C; configuration not given here) | 1.02 | > 80
2 | CCCCCOc1ccc(-c2ccc(-c3ccc(C(=O)NC4CC(O)CNC(=O)C5C(O)C(C)CN5C(=O)C(C(C)O)NC(=O)C(C(O)Cc5ccc(OP(=O)(O)OCCCC)cc5)NC(=O)C5CC(O)CN5C(=O)C(C(C)O)NC4=O)cc3)cc2)cc1 (centres unmarked) [Example 9B] ({pTerphenylCO(4''-OnC5H11)}-[ξOrn(4ξ-OH)]T[Hyp][X4]T[ξPro(3ξ-OH,4ξ-Me)]; lactam 1-C; configuration not given here) | 0.39 | > 80
3 | CCCCCOc1ccc(-c2ccc(-c3ccc(C(=O)NC4CC(O)C(O)NC(=O)C5C(O)C(C)CN5C(=O)C(C(C)O)NC(=O)C(C(O)C(O)c5ccc(OP(=O)(O)OC)cc5)NC(=O)C5CC(O)CN5C(=O)C(C(C)O)NC4=O)cc3)cc2)cc1 (centres unmarked) [Example 13B] ({pTerphenylCO(4''-OnC5H11)}-[ξOrn(4,5-diOH)]T[Hyp][X3]T[ξPro(3ξ-OH,4ξ-Me)]; lactam 1-C; configuration not given here) | 1.86 | 

Reference: patent US5646111A, “Cyclic peptide antifungal Agents” (Eli Lilly and Company, priority 1996, dated 1997)
